Results are given in words; binding and its absence hold for the method and conditions named. In cells and extracts the contact can be indirect. Some results given as binding are weak or reduced against the parent protein; the word gives no strength. One block for each molecule: values may come before it.
Key:
[1] = target: FLAG-Sox4 (sex-determining region Y-box 4) (UniProt Q06945); experiment: co-IP; HEK293T cells transfected with pFlag-Sox4 or its deletion mutants; lysed in RIPA buffer (20 mM Tris-HCl pH7.4, 150 mM NaCl, 1 mM EDTA, 1% Triton-X-100); precipitated with antibody to Flag and protein G Sepharose, 4°C; blotted for endogenous IKKα, IKKβ, IKKα/β or IκBα
[2] = target: Myeloid differentiation primary response gene 88 (MyD88) (human (endogenous in L02)) (UniProt Q99836); experiment: co-IP

Chains of the proteins cited; added tags and fusions are not shown.
UniProt Q06945: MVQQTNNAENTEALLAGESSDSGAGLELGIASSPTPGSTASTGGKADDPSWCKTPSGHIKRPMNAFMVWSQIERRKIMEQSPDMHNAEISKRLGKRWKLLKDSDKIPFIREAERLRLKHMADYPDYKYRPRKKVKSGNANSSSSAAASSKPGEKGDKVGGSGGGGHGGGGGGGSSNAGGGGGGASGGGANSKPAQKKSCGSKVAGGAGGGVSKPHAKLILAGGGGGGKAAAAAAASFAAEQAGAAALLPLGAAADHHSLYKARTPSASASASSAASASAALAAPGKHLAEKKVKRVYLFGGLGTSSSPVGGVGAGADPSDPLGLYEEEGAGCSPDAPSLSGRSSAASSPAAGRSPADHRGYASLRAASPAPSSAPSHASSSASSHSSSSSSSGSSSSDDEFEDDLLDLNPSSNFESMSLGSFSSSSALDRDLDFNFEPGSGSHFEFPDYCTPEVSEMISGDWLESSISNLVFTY
UniProt Q99836: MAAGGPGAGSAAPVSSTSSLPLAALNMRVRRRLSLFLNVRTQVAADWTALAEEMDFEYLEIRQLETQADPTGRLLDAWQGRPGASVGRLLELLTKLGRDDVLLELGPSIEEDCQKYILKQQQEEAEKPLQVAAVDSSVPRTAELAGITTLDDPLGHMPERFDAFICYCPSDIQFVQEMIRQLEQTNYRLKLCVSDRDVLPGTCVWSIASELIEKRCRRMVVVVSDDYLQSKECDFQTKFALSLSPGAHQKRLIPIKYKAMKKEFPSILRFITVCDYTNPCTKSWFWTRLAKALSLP
UniProt P25963: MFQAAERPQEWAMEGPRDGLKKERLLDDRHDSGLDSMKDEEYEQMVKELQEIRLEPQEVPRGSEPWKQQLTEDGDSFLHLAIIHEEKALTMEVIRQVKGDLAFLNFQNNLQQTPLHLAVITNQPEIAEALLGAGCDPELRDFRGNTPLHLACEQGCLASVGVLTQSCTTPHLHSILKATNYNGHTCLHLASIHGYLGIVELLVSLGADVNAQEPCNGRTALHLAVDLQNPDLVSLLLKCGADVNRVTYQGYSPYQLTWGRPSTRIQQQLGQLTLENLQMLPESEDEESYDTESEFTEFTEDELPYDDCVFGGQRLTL
UniProt P51617: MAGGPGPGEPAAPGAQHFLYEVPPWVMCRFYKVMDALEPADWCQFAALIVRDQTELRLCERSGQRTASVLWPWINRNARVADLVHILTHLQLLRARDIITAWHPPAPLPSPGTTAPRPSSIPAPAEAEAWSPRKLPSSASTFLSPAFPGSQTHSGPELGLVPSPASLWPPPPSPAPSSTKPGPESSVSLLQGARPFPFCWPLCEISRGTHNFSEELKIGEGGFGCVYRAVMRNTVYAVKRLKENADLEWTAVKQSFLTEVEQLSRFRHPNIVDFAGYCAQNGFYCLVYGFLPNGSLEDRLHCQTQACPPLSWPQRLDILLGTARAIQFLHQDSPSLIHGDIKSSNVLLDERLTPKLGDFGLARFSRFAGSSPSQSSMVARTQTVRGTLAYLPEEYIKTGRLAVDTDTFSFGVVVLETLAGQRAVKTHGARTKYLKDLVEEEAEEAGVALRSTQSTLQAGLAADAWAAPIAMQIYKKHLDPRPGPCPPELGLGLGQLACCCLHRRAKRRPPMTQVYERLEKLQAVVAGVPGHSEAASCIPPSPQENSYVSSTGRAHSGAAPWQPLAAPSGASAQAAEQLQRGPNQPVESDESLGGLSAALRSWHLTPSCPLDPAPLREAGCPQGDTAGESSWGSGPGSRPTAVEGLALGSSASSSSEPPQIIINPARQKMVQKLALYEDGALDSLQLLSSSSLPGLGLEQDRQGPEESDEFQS

binding [1]: no binding
Molecule: IκBα (from UniProt P25963 1-317)

binding [2]: binds
Molecule: IL-1 receptor-associated kinase 1 (IRAK1) (from UniProt P51617 1-712) (enzyme)

binding [1]: binds
B1: IKKβ (enzyme, UniProt O14920 1-756)
chain: MSWSPSLTTQTCGAWEMKERLGTGGFGNVIRWHNQETGEQIAIKQCRQELSPRNRERWCLEIQIMRRLTHPNVVAARDVPEGMQNLAPNDLPLLAMEYCQGGDLRKYLNQFENCCGLREGAILTLLSDIASALRYLHENRIIHRDLKPENIVLQQGEQRLIHKIIDLGYAKELDQGSLCTSFVGTLQYLAPELLEQQKYTVTVDYWSFGTLAFECITGFRPFLPNWQPVQWHSKVRQKSEVDIVVSEDLNGTVKFSSSLPYPNNLNSVLAERLEKWLQLMLMWHPRQRGTDPTYGPNGCFKALDDILNLKLVHILNMVTGTIHTYPVTEDESLQSLKARIQQDTGIPEEDQELLQEAGLALIPDKPATQCISDGKLNEGHTLDMDLVFLFDNSKITYETQISPRPQPESVSCILQEPKRNLAFFQLRKVWGQVWHSIQTLKEDCNRLQQGQRAAMMNLLRNNSCLSKMKNSMASMSQQLKAKLDFFKTSIQIDLEKYSEQTEFGITSDKLLLAWREMEQAVELCGRENEVKLLVERMMALQTDIVDLQRSPMGRKQGGTLDDLEEQARELYRRLREKPRDQRTEGDSQEMVRLLLQAIQSFEKKVRVIYTQLSKTVVCKQKALELLPKVEEVVSLMNEDEKTVVRLQEKRQKELWNLLKIACSKVRGPVSGSPDSMNASRLSQPGQLMSQPSTASNSLPEPAKKSEELVAEAHNLCTLLENAIQDTVREQDQSFTALDWSWLQTEEEEHSCLEQAS

From article PMC7894441
